# Negatives hold for the conditions tested. For some assays here: For at least one entry, the source does not settle the construct or the ends of the probe.
# Experiments:
# fibrinogen = assay: SPR; conditions: AS2 100 nM, 2 mM MgCl2; SPR (Biacore CM5): PBS pH 7.4, 2 mM MgCl2 (PBSM), 25 °C, 15 µl/min, blank flow cell reference; commercial protein; single-stranded DNA
# [1] = target: human serum albumin (HSA) (Homo sapiens) (UniProt P02768); assay: SPR; conditions: AS2 100 nM, 2 mM MgCl2; SPR (Biacore CM5): PBS pH 7.4, 2 mM MgCl2 (PBSM), 25 °C, 15 µl/min, blank flow cell reference; commercial protein; single-stranded DNA
sequence,measurement,setting,value
GGGCGGGGCGGACGAGACAGTAAGGGCTGTGGGTGTGGTG [AS2],binding result,fibrinogen,no binding
same,binding result,[1],no binding

# Source: paper PMC4897735
